Measured values published in patent US7718700B2, “Growth factor-binding compounds and methods of use” (Yale University, priority 2004, dated 2010).
Some of these results come from one statement about several compounds together.

Test system: PDGFR
Assay: PDGF-stimulated PDGFR tyrosine phosphorylation in NIH 3T3 cells
Format: cell-based, mouse
Details: read-out: IC50 (μM) PDGFR, PDGF-BB 10 ng/ml stimulated receptor tyrosine phosphorylation
Description: Inhibition of growth factor-dependent receptor tyrosine phosphorylation by GFBs. Starved Flk-1/KDR-overexpressing NIH 3T3 cells (Flk-1/NIH 3T3) or NIH 3T3 cells were pretreated with GFBs for 5 min before stimulation with VEGF (50 ng/ml) or PDGF-BB (10 ng/ml) for 10 min, respectively. The cells were then harvested and lysed, and proteins from the lysates were separated by SDS-PAGE and transferred to nitrocellulose. Membranes then were either immunoblotted with anti-phospho-VEGFR2 antibody (Cell Signaling Technologies, Beverly, Mass.) for activated Flk-1 or anti-phospho-tyrosine antibody (4G10, Upstate Biotechnology, Lake Placid, N.Y.) for activated PDGFR. Phosphotyrosine Flk-1 and PDGFR were quantified using a Bio-Rad Model GS-700 Imaging Densitometer (Bio-Rad Laboratories, Inc, Hercules, Calif.) (Blaskovich, M. A. et al. Nat Biotechnol, 2000, 18:1065-70).

Q: For CCCCOc1c2cc(C(=O)Nc3cc(C(=O)NC(CC(=O)O)C(=O)O)cc(C(=O)NC(CC(=O)O)C(=O)O)c3)cc1Cc1cc(C(=O)Nc3cc(C(=O)NC(CC(=O)O)C(=O)O)cc(C(=O)NC(CC(=O)O)C(=O)O)c3)cc(c1OCCCC)Cc1cc(C(=O)Nc3cc(C(=O)NC(CC(=O)O)C(=O)O)cc(C(=O)NC(CC(=O)O)C(=O)O)c3)cc(c1OCCCC)Cc1cc(C(=O)Nc3cc(C(=O)NC(CC(=O)O)C(=O)O)cc(C(=O)NC(CC(=O)O)C(=O)O)c3)cc(c1OCCCC)C2 (stereo not shown) [GFB202], which IC50 is on record?
A: 1 to 6 µM
